Source: PubChem BioAssay AID493014 (National Center for Advancing Translational Sciences (NCATS), 2011)
The other results are listed elsewhere or left out. Further columns of the screen follow, without active or inactive calls. The list favours compounds with an active or inconclusive main result. The note in brackets gives the kind of curve behind each potency; many fits are weak.

Assay: qHTS Assay to Find Inhibitors of Chronic Active B-Cell Receptor Signaling
Settings: ABC-DLBCL IkBa-CBG/CBR reporter, luminescence ratio (green luciferase fused to IkBa over red control in TMD8 lymphoma cells), 4 h
Outline: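 TMD8 ABC-DLBCL cells carrying doxycycline-inducible green luciferase fused to IkappaBalpha plus unfused red luciferase were exposed to compounds (up to 46 uM) for 4 hrs at 37C. Activity came from the overlap-corrected green/red luminescence ratio.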

[1] = measured here: IkBa-CBG green luminescence
[2] = measured here: CBR red luminescence, cell number

| Compound | AC50 [1] | AC50 [2] |
| --- | --- | --- |
| CCCSc1nnc(Sc2nnnn2-c2ccccc2)s1 | 14.6 µM [falling, partial curve] | – |
| O=c1[nH][nH]c(=S)n1-c1ccccc1C(F)(F)F | – | 35.5 µM [rising, single point] |
| O=C(COc1ccccc1)NC1CCN(Cc2ccccc2)CC1 | – | 1.3 µM [falling, partial curve, poor fit] |
| COc1ccc(N=Cc2c(O)[nH]c3ccccc23)cc1 | – | 22.4 µM [falling, single point] |
| COc1ccc(CCNC(=O)c2cc(S(=O)(=O)N(C)c3ccccc3)ccc2Cl)cc1 | – | 29.1 µM [falling, single point] |
| CC(=O)c1ccccc1NC(=O)CSc1nnc2ccccn12 | – | 6.51 µM [falling, partial curve, poor fit] |
| COc1cc(NC(=S)NC(=O)c2ccccc2C)ccc1NC(=O)c1cccs1 | – | 3.26 µM [falling, partial curve, poor fit] |
| COc1ccc(-c2nn(-c3ccccc3)cc2CN2CCCO2)c(F)c1 | – | 0.112 µM [rising, full curve, poor fit] |
| Cc1ccsc1C(=O)OCc1nc2ccsc2c(=O)[nH]1 | – | 18.4 µM [falling, single point] |
| Cc1cccc(/C=N/NC(=O)c2ccc(F)cc2)n1 | – | 22.4 µM [falling, single point] |
| O=C(O)CCCC(=O)Nc1ccccc1Oc1ccccc1 | – | 12.6 µM [falling, partial curve, poor fit] |
| OC(COc1ccc2c(c1)OCO2)CN1CCN(c2ccccc2)CC1 (configuration not stated) | – | 1.26 µM [falling, full curve, poor fit] |
| Cc1cc(OCC(=O)N(C)C2CCCCC2)cc(C)c1Cl | – | 2.24 µM [rising, full curve, poor fit] |
| Cc1c(NS(=O)(=O)c2ccc3c(c2)n(C)c(=O)n3C)c(=O)n(-c2ccccc2)n1C | – | 22.4 µM [rising, single point] |
| COc1ccc(/C=N/NC(=O)c2cccc(NC(=O)c3ccc(Cl)cc3)c2)c(OC)c1 | – | 16.4 µM [falling, partial curve, poor fit] |
| CC/C(C)=N\Nc1nc(-c2cc3cc(OC)ccc3oc2=O)cs1 | 35.5 µM [rising, partial curve, poor fit] | – |
| CC(=O)Nc1ccc(NC(=O)CSc2nnc3ccc(-c4ccccn4)nn23)cc1 | – | 18.4 µM [falling, partial curve, poor fit] |
| COc1cc2ccccc2cc1C(=O)Nc1ccc(O)cc1 | – | 4.47 µM [falling, partial curve, poor fit] |
| O=C(CN1CCc2ccccc21)NN1CC(=O)N(c2ccc(Cl)cc2)CC1=O | – | 0.398 µM [rising, full curve, poor fit] |
| CCC1COCCS(=O)(=O)N1Cc1ccc(Cl)cc1 (configuration not stated) | – | 25.1 µM [falling, single point] |
| Cc1ccc(C(C2=C(O)CC(C)(C)CC2=O)C2C(=O)CC(C)(C)CC2=O)s1 (configuration not stated) | – | 31.6 µM [rising, single point] |
| O=C(Nc1nc(-c2ccc(-c3ccccc3)cc2)cs1)C1=COCCO1 | – | 0.184 µM [falling, full curve] |

Arranged by length of the SMILES (low to high): five of the compounds above

| Compound | AC50 [1] | AC50 [2] |
| --- | --- | --- |
| CCCSc1nnc(Sc2nnnn2-c2ccccc2)s1 | 14.6 µM [falling, partial curve] | – |
| COc1cc2ccccc2cc1C(=O)Nc1ccc(O)cc1 | – | 4.47 µM [falling, partial curve, poor fit] |
| COc1ccc(N=Cc2c(O)[nH]c3ccccc23)cc1 | – | 22.4 µM [falling, single point] |
| CC(=O)Nc1ccc(NC(=O)CSc2nnc3ccc(-c4ccccn4)nn23)cc1 | – | 18.4 µM [falling, partial curve, poor fit] |
| COc1ccc(CCNC(=O)c2cc(S(=O)(=O)N(C)c3ccccc3)ccc2Cl)cc1 | – | 29.1 µM [falling, single point] |

Continuation.

| Compound | AC50 [1] | AC50 [2] |
| --- | --- | --- |
| CCCn1nc(NC(=O)c2ccccn2)c2cc3cc(C)ccc3nc21 | – | 2.91 µM [falling, full curve] |
| N#CC1=C(N)N(c2ccccc2)C2=C(C(=O)CCC2)C1c1ccccc1 (configuration not stated) | – | 4.11 µM [falling, full curve] |
| CCCCn1c(=N)n(CC(O)COc2ccccc2)c2ccccc21 (configuration not stated) | – | 22.4 µM [falling, single point] |
| CNc1nc(Sc2ccccc2)cc(C(F)(F)F)n1 | – | 17.8 µM [rising, partial curve, poor fit] |
| Nn1c(SCC(=O)NCC2CCCO2)nnc1-c1ccco1 (configuration not stated) | – | 0.146 µM [rising, full curve, poor fit] |
| Cc1ccc(NC(=S)NC(=O)C2CCCCC2)c(Br)c1 | – | 11.6 µM [rising, partial curve, poor fit] |
| CO/N=C(\C(=O)O)c1csc(NN=C(C)C)n1 | – | 6.31 µM [rising, single point] |
| O=C(O)CCCC(=O)Nc1nc(-c2ccccc2)cs1 | – | 0.794 µM [falling, full curve] |
| C#CCOCCOCCOCCNc1nc(N2CCN(C(=O)CCCCCCCCCCNC(=O)Cn3cc(CCCCCN)nn3)CC2)nc(N2CCN(C(=O)CCCCCCCCCCNC(=O)[C@H]([C@@H](C)CC)n3cc(CCCCN=C(N)N)nn3)CC2)n1 | – | 2.06 µM [rising, partial curve] |
| COc1ccc(OC)c2[nH]c(=O)c(CCNC(=S)NC(C)(C)C)cc12 | – | 5.62 µM [rising, single point] |
| O=C(N/N=C/c1ccoc1)c1ccccc1Br | – | 8.91 µM [falling, partial curve] |
| Cc1noc(C)c1CSCC(=O)Nc1nc2c(F)cc(F)cc2s1 | – | 16.4 µM [falling, partial curve] |
| CN(Cc1ccc2nonc2c1)Cc1nc(CC2CC2)no1 | – | 20 µM [falling, single point] |
| COc1cc(/C=C2\SC(=S)N(CCCCC(=O)O)C2=O)ccc1OS(=O)(=O)c1ccc(C)cc1 | 10.3 µM [rising, partial curve, poor fit] | 20.6 µM [falling, single point] |
| O=C(COc1ccc(Cl)cc1Cl)N1CCNC1=O | – | 6.51 µM [rising, single point] |
| Clc1ccc(-c2nnc(-c3ccccc3)c(N3CCSCC3)n2)cc1 | – | 1.78 µM [falling, full curve] |
| O=C(OCCCCN1C(=O)c2ccccc2C1=O)c1ccc(S(=O)(=O)N2CCCC2)cc1 | – | 5.01 µM [falling, full curve, poor fit] |
| C=CCC(=O)OCC(=O)Nc1ccc(Oc2ccccc2)cc1 | – | 11.2 µM [falling, partial curve, poor fit] |
| COCCn1c(C)cc(C2=NNC(=NC3CC3)SC2)c1C | – | 3.16 µM [rising, full curve, poor fit] |
| COc1cc(OC)c(C2=NOC(C(=O)Nc3c(C)n(C)n(-c4ccccc4)c3=O)C2)cc1Cl (configuration not stated) | – | 10 µM [falling, partial curve, poor fit] |
| COC(=O)C1=C(C)N(Cc2ccccc2)C(=NCc2ccccc2)N[C@H]1c1ccccc1 | – | 22.4 µM [falling, single point] |
| CC1CCC2(CC1)NC(=O)c1ccccc1O2 (configuration not stated) | – | 7.31 µM [falling, single point] |

| Compound | AC50 [1] | AC50 [2] |
| --- | --- | --- |
| CC(C)(C)c1ccc(NC(=O)c2ccccc2)c([N+](=O)[O-])c1 | – | 12.6 µM [rising, partial curve, poor fit] |
| CCCc1nc(SCC(=O)NC2CCCC2)c2ccccc2n1 | – | 25.1 µM [falling, single point] |
| CCCN1CCN(C(c2cc3cc(OCC)ccc3[nH]c2=O)c2nnnn2C2CCCCC2)CC1 (configuration not stated) | – | 14.1 µM [rising, partial curve, poor fit] |
| Nc1c(C(=O)NCc2ccc3c(c2)OCO3)c2nc3ccccc3nc2n1CCCN1CCOCC1 | – | 22.4 µM [falling, partial curve, poor fit] |
| CC(=O)N1CCc2cc(S(=O)(=O)NCCC(=O)Nc3cc(C)cc(C)c3)ccc21 | – | 29.1 µM [rising, single point] |
| COc1cccc2cc(-c3ccccc3)c(=O)oc12 | 1.41 µM [rising, full curve] | 1 µM [falling, partial curve, poor fit] |
| O=C(NCCc1ccc(F)cc1)c1n[nH]c2ccccc12 | – | 5.62 µM [falling, partial curve] |
| COc1ccc(NC(=O)C2C3C=CC(O3)C2C(=O)O)cc1 (configuration not stated) | – | 4.47 µM [rising, full curve, poor fit] |
| CSc1ncc(OCc2ccccc2)c(=O)[nH]1 | – | 25.1 µM [falling, single point] |
| COC(=O)c1c(NC(=O)CSc2nnc(CNc3ccc(Cl)cc3)o2)sc(C)c1C | – | 32.6 µM [falling, single point] |
| CCCCCC(=O)Nc1ccc2oc(-c3cncc(Br)c3)nc2c1 | – | 7.08 µM [rising, partial curve, poor fit] |
| O=C(NCCN1CCN(C(=O)c2c(F)cccc2F)CC1)C(=O)Nc1ccc(Cl)cc1 | – | 15.8 µM [falling, partial curve, poor fit] |
| Cc1cc2cc(CN3C(=O)c4ccccc4C3=O)ccc2[nH]1 | – | 1.3 µM [falling, full curve] |
| C/C(=N\NC(=O)c1cccc(N/N=C(\C)c2cc(O)ccc2O)c1)c1cc(O)ccc1O | – | 5.01 µM [falling, partial curve] |
| OCCCc1nc2ccccc2n1CCc1ccccc1 | – | 20.6 µM [falling, partial curve] |
| CCCCCC(N)=O | – | 29.1 µM [rising, single point] |
| Cc1ccc(NS(=O)(=O)c2cc(-c3n[nH]c(=O)c4ccccc34)ccc2C)cc1 | 5.17 µM [falling, partial curve] | 2.91 µM [rising, single point] |
| COc1cc(C(=O)NC(C)c2cccc3ccccc23)cc(OC)c1OC (configuration not stated) | – | 0.447 µM [rising, partial curve, poor fit] |
| CCOP(=O)(c1ccc(N(C)C)cc1)C(O)c1ccccc1F (configuration not stated) | – | 6.31 µM [rising, single point] |
| COCCn1c(SCC(=O)NC(=O)NC2CCCCC2)nc2ccccc2c1=O | – | 9.2 µM [falling, single point] |
